Experimental data as given in the supplement of paper PMC6411743.
± gives the standard deviation of the averaged measurements. This is a selection; strong and weak results do not stand in their true shares. Most values lie at the level of the controls, where differences are scatter.

Chains of the proteins cited; added tags and fusions are not shown. Lines headed by an entry give the natural chain unless they say otherwise; changes in a name come on top.
UniProt Q9Y672: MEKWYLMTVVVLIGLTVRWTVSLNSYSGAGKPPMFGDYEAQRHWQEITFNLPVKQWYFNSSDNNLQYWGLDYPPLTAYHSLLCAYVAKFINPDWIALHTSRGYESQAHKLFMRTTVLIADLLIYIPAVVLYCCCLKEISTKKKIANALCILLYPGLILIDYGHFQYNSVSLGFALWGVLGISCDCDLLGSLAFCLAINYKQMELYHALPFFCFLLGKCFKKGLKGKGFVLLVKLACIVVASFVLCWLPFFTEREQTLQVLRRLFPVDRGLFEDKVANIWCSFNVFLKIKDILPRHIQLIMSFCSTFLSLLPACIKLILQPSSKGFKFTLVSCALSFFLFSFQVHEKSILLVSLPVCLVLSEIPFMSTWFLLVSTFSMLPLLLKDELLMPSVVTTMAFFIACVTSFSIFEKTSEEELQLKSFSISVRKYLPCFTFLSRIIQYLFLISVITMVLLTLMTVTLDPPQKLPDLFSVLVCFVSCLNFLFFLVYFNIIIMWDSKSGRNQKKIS
UniProt O76054, whole entry: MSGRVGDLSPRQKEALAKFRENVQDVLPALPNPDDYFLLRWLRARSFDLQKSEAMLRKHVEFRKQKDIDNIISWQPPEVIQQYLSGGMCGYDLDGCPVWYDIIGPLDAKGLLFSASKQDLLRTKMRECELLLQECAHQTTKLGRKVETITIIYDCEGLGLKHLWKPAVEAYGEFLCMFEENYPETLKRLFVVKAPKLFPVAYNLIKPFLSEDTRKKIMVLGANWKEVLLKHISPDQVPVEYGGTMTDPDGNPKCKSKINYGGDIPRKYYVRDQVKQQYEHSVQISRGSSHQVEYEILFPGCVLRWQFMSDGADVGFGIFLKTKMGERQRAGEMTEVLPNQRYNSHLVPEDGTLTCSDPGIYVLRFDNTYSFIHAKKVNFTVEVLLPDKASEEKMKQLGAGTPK
UniProt Q13454: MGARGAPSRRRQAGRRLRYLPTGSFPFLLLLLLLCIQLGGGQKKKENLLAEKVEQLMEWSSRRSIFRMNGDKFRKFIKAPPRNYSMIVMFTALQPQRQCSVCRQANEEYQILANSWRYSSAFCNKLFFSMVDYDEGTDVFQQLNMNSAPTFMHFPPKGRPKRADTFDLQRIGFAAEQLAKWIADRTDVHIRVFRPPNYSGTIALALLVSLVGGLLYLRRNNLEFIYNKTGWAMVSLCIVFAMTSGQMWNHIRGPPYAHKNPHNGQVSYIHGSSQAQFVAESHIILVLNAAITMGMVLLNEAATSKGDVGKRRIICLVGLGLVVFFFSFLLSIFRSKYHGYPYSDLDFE
UniProt Q15853: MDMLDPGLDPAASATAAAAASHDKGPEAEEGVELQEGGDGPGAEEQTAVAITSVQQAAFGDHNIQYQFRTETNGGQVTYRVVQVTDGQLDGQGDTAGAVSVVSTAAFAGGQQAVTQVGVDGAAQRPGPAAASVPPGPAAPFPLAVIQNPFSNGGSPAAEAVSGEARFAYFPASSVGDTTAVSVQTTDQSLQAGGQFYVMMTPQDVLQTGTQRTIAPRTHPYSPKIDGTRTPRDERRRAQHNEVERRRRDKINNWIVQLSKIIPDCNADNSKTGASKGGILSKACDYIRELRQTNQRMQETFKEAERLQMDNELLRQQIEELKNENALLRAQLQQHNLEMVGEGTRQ
UniProt Q9UKY7: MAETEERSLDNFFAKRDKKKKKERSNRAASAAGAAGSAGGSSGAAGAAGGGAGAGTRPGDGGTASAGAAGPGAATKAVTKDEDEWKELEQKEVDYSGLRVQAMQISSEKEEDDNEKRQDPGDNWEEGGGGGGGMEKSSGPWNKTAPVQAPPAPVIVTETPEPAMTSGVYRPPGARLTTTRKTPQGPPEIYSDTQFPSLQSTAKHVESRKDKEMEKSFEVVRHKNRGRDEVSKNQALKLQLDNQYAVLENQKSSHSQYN
UniProt Q96IW7: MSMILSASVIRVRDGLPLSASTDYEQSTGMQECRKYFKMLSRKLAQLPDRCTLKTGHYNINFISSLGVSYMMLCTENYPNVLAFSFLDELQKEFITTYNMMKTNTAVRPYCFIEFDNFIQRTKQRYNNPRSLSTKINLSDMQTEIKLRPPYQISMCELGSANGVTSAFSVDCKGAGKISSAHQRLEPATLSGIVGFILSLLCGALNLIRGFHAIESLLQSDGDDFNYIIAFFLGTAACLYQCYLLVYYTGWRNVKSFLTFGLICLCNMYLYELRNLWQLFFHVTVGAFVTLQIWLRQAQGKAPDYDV
UniProt O00541, whole entry: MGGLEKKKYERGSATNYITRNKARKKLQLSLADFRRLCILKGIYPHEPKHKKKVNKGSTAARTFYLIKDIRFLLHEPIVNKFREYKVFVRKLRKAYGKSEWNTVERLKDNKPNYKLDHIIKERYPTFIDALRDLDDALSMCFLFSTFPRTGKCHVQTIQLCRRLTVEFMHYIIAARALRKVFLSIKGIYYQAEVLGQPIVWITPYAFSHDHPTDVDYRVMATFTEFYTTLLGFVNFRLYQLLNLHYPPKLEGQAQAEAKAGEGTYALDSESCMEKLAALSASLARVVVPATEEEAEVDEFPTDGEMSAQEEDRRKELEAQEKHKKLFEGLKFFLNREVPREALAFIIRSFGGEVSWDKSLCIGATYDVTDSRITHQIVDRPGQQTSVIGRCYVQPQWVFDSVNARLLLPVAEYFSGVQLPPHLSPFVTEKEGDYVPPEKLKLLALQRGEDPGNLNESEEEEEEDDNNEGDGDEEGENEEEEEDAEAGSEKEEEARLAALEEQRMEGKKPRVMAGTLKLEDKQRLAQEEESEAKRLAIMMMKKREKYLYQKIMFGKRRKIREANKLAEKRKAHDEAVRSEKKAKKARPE
UniProt Q6NYC8: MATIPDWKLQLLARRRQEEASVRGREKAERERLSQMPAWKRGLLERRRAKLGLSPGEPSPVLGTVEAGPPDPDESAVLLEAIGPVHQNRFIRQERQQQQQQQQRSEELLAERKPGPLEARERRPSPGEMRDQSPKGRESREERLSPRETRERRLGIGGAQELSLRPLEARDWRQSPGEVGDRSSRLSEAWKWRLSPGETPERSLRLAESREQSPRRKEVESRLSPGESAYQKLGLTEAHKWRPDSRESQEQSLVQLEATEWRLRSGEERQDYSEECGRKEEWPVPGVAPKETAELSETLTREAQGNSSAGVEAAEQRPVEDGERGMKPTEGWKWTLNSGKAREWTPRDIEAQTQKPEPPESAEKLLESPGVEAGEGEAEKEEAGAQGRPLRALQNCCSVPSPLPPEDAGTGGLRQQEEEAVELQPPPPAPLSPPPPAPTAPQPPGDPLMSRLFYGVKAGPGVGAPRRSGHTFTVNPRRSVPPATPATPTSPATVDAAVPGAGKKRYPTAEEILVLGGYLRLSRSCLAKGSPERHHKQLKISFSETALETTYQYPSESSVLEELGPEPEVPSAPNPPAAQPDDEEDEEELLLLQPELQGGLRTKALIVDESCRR
UniProt Q9Y519: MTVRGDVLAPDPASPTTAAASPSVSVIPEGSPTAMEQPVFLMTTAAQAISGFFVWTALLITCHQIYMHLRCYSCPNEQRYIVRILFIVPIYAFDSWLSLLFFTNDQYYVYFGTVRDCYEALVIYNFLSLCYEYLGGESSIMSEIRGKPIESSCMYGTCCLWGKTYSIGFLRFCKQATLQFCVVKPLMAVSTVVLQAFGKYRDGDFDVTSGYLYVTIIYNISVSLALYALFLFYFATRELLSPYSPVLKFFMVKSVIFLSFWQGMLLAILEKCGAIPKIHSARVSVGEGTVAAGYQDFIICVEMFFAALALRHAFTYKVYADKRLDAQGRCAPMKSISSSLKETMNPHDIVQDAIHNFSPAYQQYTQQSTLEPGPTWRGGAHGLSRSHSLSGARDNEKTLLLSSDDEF
UniProt A8MWD9, whole entry, looked up: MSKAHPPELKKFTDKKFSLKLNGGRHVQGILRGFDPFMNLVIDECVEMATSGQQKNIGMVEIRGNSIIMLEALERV
UniProt P62308, whole entry, looked up: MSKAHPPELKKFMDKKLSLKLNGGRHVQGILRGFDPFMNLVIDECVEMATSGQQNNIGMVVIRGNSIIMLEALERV
UniProt A6NFI3: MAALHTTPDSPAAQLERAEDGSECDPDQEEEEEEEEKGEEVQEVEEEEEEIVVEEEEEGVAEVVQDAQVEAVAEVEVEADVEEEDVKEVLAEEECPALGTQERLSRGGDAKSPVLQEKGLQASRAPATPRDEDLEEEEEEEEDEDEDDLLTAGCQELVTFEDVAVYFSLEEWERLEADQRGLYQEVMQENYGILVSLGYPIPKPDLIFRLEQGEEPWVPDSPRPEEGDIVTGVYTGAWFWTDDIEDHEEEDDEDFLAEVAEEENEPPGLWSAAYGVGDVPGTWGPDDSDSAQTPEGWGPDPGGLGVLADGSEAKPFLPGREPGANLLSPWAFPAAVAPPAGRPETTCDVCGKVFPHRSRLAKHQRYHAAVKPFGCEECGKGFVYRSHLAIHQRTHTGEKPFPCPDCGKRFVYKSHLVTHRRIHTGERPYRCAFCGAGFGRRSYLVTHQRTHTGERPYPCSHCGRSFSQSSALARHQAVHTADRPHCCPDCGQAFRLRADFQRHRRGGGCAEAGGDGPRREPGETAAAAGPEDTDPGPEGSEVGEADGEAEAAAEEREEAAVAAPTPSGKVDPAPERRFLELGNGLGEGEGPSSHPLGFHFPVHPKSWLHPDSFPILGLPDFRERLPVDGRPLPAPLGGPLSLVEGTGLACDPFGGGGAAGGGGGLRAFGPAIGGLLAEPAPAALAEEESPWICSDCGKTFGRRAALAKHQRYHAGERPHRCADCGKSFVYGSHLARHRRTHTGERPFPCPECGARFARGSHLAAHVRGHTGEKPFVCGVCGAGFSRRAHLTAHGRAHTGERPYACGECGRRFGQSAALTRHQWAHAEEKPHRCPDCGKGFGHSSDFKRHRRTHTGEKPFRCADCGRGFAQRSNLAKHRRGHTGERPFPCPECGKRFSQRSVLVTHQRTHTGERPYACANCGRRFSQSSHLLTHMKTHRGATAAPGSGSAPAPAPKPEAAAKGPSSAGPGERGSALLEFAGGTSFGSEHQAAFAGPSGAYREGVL
UniProt A6NHG4: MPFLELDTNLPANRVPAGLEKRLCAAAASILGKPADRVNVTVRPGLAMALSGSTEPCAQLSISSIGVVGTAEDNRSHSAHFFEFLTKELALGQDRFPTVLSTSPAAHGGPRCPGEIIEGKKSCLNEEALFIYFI
UniProt P26599: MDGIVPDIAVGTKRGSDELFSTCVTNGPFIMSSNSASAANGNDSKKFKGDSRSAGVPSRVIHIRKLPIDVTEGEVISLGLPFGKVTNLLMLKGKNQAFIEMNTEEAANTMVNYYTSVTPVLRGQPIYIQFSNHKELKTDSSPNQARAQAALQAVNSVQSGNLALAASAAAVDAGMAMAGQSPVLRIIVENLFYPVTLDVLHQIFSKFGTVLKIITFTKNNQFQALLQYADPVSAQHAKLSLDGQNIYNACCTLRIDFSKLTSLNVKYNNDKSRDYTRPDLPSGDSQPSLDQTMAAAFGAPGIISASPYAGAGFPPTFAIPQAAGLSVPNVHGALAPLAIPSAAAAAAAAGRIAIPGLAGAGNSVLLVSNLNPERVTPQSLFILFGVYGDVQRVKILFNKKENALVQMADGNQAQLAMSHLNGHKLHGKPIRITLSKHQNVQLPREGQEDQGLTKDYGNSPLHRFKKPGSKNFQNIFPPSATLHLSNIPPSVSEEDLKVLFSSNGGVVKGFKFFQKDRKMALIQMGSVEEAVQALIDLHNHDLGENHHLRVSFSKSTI
UniProt O00189: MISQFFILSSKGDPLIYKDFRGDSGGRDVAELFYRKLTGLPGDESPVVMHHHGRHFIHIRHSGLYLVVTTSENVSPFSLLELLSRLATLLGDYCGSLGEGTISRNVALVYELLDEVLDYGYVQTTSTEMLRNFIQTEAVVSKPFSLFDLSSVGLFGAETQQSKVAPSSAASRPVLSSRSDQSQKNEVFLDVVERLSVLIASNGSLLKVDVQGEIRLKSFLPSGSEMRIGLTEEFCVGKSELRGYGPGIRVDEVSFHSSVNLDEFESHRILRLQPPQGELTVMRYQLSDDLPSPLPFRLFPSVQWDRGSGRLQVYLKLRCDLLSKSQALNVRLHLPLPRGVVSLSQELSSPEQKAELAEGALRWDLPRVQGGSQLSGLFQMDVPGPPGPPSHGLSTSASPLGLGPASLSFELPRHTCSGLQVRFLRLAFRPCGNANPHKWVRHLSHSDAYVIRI
UniProt Q14728: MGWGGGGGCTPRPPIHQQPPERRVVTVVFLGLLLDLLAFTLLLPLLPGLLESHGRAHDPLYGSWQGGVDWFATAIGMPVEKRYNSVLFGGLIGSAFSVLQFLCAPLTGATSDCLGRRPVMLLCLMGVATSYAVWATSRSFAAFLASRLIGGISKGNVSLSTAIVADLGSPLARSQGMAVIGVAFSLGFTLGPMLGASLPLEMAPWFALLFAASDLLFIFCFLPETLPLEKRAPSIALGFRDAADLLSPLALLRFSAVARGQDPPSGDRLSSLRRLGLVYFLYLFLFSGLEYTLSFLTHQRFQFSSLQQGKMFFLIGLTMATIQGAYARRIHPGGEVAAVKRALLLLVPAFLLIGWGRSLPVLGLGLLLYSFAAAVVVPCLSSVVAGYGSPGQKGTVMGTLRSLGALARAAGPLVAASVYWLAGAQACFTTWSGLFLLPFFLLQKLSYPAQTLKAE

Compound: Nc1ncnc2c1ncn2[C@@H]1O[C@H](COP(=O)(O)OP(=O)(O)OP(=O)(O)O)[C@@H](O)[C@H]1O [adenosine triphosphate]
Assay: NP40-soluble protein abundance relative to vehicle (solubility fold change) (ratio); higher = more soluble protein in presence of ATP
Outline: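 Each value is a fold change relative to the detergent-processed vehicle, calculated per replicate from vsn-normalised intensities. Jurkat crude lysate received eight concentrations (0.1 to 10 mM) for 10 min at room temperature and 3 min at 37 °C, then was solubilised in 0.8% NP40 with benzonase (60 min, 4 °C). The ultracentrifuged supernatant was TMT-labelled and run by LC-MS/MS in three independent experiments.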

Target	NP40-soluble protein abundance (concentration: 0.1mM)	NP40-soluble protein abundance (concentration: 0.5mM)
B1ALH6 and related entries (UniProt O14832)	0.987 ± 0.078	1.04 ± 0.072
A2A274 and related entries (UniProt Q99798)	1.07 ± 0.068	1.05 ± 0.065
A2A2G4 and related entries (UniProt Q9Y672)	0.943 ± 0.039	0.905 ± 0.15
A0A0G2JLR5|A0A0G2JMW4|Q02833 and related entries (UniProt Q02833)	0.898 ± 0.061	0.916 ± 0.039
A0A0J9YWL0|Q9Y4K1 (UniProt Q9Y4K1)	1 ± 0.049	1.02 ± 0.045
B7Z2Y2 and related entries (UniProt Q14746)	0.999 ± 0.071	0.988 ± 0.1
D6RDN9 and related entries (UniProt Q15119)	1.02 ± 0.073	1.06 ± 0.025
C9JEH3 and related entries (UniProt Q13685)	1.01 ± 0.099	1.05 ± 0.12
B5MCU0 and related entries (UniProt Q9Y2K5)	1.08 ± 0.013	0.99 ± 0.053
B3KRD8 and related entries (UniProt O76054)	1.04 ± 0.12	1.05 ± 0.14
C9J7K9 and related entries (UniProt O15162)	0.95 ± 0.11	0.919 ± 0.2
D6RA37 and related entries (UniProt Q13454)	1.03 ± 0.061	0.993 ± 0.015
C9JYE9 and related entries (UniProt Q15329)	1.02 ± 0.025	0.995 ± 0.067
C9J5C3 and related entries (UniProt Q9BUL8)	0.981 ± 0.02	0.976 ± 0.076
B4DGU4 and related entries (UniProt P35222)	1.06 ± 0.068	1.03 ± 0.11
D3YTB1 and related entries (UniProt P62910)	0.903 ± 0.12	0.9 ± 0.1
C9JXQ9 and related entries (UniProt O95168)	0.937 ± 0.042	0.815 ± 0.11
SH3PXD2B (UniProt A1X283)	1.01 ± 0.011	0.994 ± 0.079
C9J6P4 and related entries (UniProt Q7Z2W4)	1.06 ± 0.029	1.16 ± 0.052
C9J8B8 and related entries (UniProt Q969S8)	0.889 ± 0.059	0.919 ± 0.064
UniProt A2RUC4 and related entries	1.04 ± 0.14	1.04 ± 0.084
A0A0G2JLB3|A0A0G2JNZ0|A0A0G2JNZ5|P04062 and related entries (UniProt P04062)	1.01 ± 0.076	0.927 ± 0.088
B4DLJ1 and related entries (UniProt Q15853)	0.987 ± 0.043	1 ± 0.042
UniProt A2RRP1 and related entries	1.04 ± 0.04	1.02 ± 0.032

Target	NP40-soluble protein abundance (concentration: 0.1mM)	NP40-soluble protein abundance (concentration: 0.5mM)
B4DKD5 and related entries (UniProt Q7Z6M4)	1.05 ± 0.056	0.936 ± 0.014
A6NF51 and related entries (UniProt O95861)	0.989 ± 0.037	0.993 ± 0.017
B7ZBM3 and related entries (UniProt Q8IVH2)	0.902 ± 0.034	0.929 ± 0.082
B8ZZ50 and related entries (UniProt O60573)	0.966 ± 0.028	1.08 ± 0.018
D6RAM1 and related entries (UniProt P31943)	1.04 ± 0.035	1.06 ± 0.042
C9J7Z4 and related entries (UniProt Q8NCE0)	1.012 ± 0.0068	1.06 ± 0.12
B4E0E3 and related entries (UniProt Q9H6X4)	0.98 ± 0.11	0.853 ± 0.039
C9J0Q5 and related entries (UniProt Q9Y618)	0.979 ± 0.06	0.968 ± 0.053
B8ZZC8 and related entries (UniProt Q9NRN9)	1.1 ± 0.094	1.05 ± 0.07
A6NFX8 and related entries (UniProt Q9UKK9)	1.07 ± 0.083	1.05 ± 0.026
C9J2U0 and related entries (UniProt P24864)	1.05 ± 0.06	1.01 ± 0.088
A8K727 and related entries (UniProt Q9HB19)	1.03 ± 0.043	1.08 ± 0.031
D6R9V8 and related entries (UniProt Q9UKY7)	0.879 ± 0.053	0.896 ± 0.051
D6RHU3 and related entries (UniProt P55212)	1.05 ± 0.067	1.04 ± 0.11
C9JA08 and related entries (UniProt Q96D46)	1.01 ± 0.041	0.98 ± 0.03
A6NK28 and related entries (UniProt Q13163)	0.991 ± 0.097	1.22 ± 0.28
A0A0G2JNU3|A6H8Y1 and related entries (UniProt A6H8Y1)	1 ± 0.033	0.971 ± 0.049
UniProt A5YKK6 and related entries	1.06 ± 0.051	1.16 ± 0.048
C9JNZ0 and related entries (UniProt Q96IW7)	1.02 ± 0.011	1.09 ± 0.07
B4DRN8 and related entries (UniProt Q5W0Z9)	1.03 ± 0.07	1.07 ± 0.048
A0A0G2JIR1|A0A0G2JIS2|A0A0G2JK64|A2ABF8 and related entries (UniProt Q96KQ7)	1.02 ± 0.077	1.03 ± 0.043
UniProt B7ZLF3	1.04 ± 0.068	1 ± 0.061
C9J4Z3 and related entries (UniProt P61513)	1.02 ± 0.13	0.937 ± 0.095
B1ANH0 and related entries (UniProt Q16774)	0.964 ± 0.017	0.991 ± 0.022

Target	NP40-soluble protein abundance (concentration: 0.1mM)	NP40-soluble protein abundance (concentration: 0.5mM)
B4DIG0 and related entries (UniProt P30305)	1.02 ± 0.036	1.01 ± 0.056
B7Z836 and related entries (UniProt Q9NYB9)	0.971 ± 0.016	1.06 ± 0.12
UniProt A0JNW5 and related entries	1.03 ± 0.1	1.04 ± 0.025
D6RC04 and related entries (UniProt Q9Y6G5)	0.966 ± 0.035	0.934 ± 0.051
D6RA92 and related entries (UniProt Q9UM13)	1.07 ± 0.078	1.11 ± 0.062
C9JLU1 and related entries (UniProt P52434)	1.03 ± 0.12	1.02 ± 0.1
B5MCF9 and related entries (UniProt O00541)	0.975 ± 0.017	1.03 ± 0.033
D6RD24 and related entries (UniProt Q7Z6J8)	1.03 ± 0.19	0.99 ± 0.089
C9JIZ6 and related entries (UniProt P07602)	0.907 ± 0.063	0.855 ± 0.11
A9Z1X7 and related entries (UniProt Q8IYB3)	1.03 ± 0.089	1.33 ± 0.12
D6RGV5 and related entries (UniProt P14406)	0.908 ± 0.12	0.838 ± 0.18
B4E0T2 and related entries (UniProt P50542)	0.987 ± 0.048	0.958 ± 0.062
A8MQ02 and related entries (UniProt P55196)	1.08 ± 0.0027	1.08 ± 0.046
B4DTS2 and related entries (UniProt Q9BZL6)	1.11 ± 0.041	1.103 ± 0.0033
D3YTB5 and related entries (UniProt P51617)	1.06 ± 0.02	1.08 ± 0.057
A8MVZ6 and related entries (UniProt Q96G01)	1.01 ± 0.03	0.98 ± 0.06
B4DK77 and related entries (UniProt Q9H6K4)	0.985 ± 0.022	0.867 ± 0.084
A0A0G2JHC2|Q6NYC8 (UniProt Q6NYC8)	0.927 ± 0.02	0.934 ± 0.049
A0A0J9YYJ3|Q9Y519 (UniProt Q9Y519)	1.06 ± 0.091	1.03 ± 0.012
A0A0U1RRH6 (UniProt O94880)	1.01 ± 0.058	1 ± 0.017
UniProt A2RTX5 and related entries	1.01 ± 0.048	1 ± 0.082
B4DTY2 and related entries (UniProt O15304)	1.08 ± 0.045	1.02 ± 0.069
A8MWD9 and related entries (UniProt P62308+A8MWD9)	1.039 ± 0.0044	1.05 ± 0.12
ZNF316 (UniProt A6NFI3)	0.985 ± 0.066	0.97 ± 0.021

Already shown: an excerpt of the list.
Target	NP40-soluble protein abundance (concentration: 0.1mM)	NP40-soluble protein abundance (concentration: 0.5mM)
B7Z836 and related entries (UniProt Q9NYB9)	0.971 ± 0.016	1.06 ± 0.12
UniProt A0JNW5 and related entries	1.03 ± 0.1	1.04 ± 0.025
D6RC04 and related entries (UniProt Q9Y6G5)	0.966 ± 0.035	0.934 ± 0.051
D6RA92 and related entries (UniProt Q9UM13)	1.07 ± 0.078	1.11 ± 0.062
C9JLU1 and related entries (UniProt P52434)	1.03 ± 0.12	1.02 ± 0.1
B5MCF9 and related entries (UniProt O00541)	0.975 ± 0.017	1.03 ± 0.033
D6RD24 and related entries (UniProt Q7Z6J8)	1.03 ± 0.19	0.99 ± 0.089
C9JIZ6 and related entries (UniProt P07602)	0.907 ± 0.063	0.855 ± 0.11
A9Z1X7 and related entries (UniProt Q8IYB3)	1.03 ± 0.089	1.33 ± 0.12
D6RGV5 and related entries (UniProt P14406)	0.908 ± 0.12	0.838 ± 0.18
B4E0T2 and related entries (UniProt P50542)	0.987 ± 0.048	0.958 ± 0.062
A8MQ02 and related entries (UniProt P55196)	1.08 ± 0.0027	1.08 ± 0.046
B4DTS2 and related entries (UniProt Q9BZL6)	1.11 ± 0.041	1.103 ± 0.0033
D3YTB5 and related entries (UniProt P51617)	1.06 ± 0.02	1.08 ± 0.057
A8MVZ6 and related entries (UniProt Q96G01)	1.01 ± 0.03	0.98 ± 0.06
B4DK77 and related entries (UniProt Q9H6K4)	0.985 ± 0.022	0.867 ± 0.084
A0A0G2JHC2|Q6NYC8 (UniProt Q6NYC8)	0.927 ± 0.02	0.934 ± 0.049
A0A0J9YYJ3|Q9Y519 (UniProt Q9Y519)	1.06 ± 0.091	1.03 ± 0.012
A0A0U1RRH6 (UniProt O94880)	1.01 ± 0.058	1 ± 0.017
UniProt A2RTX5 and related entries	1.01 ± 0.048	1 ± 0.082
B4DTY2 and related entries (UniProt O15304)	1.08 ± 0.045	1.02 ± 0.069
A8MWD9 and related entries (UniProt P62308+A8MWD9)	1.039 ± 0.0044	1.05 ± 0.12

(listing goes on)

Target	NP40-soluble protein abundance (concentration: 0.1mM)	NP40-soluble protein abundance (concentration: 0.5mM)
A6NHG4 and related entries (UniProt P30046+B5MC82+A6NHG4)	1.023 ± 0.0049	1.02 ± 0.02
A6NMQ3 and related entries (UniProt O43768)	1.03 ± 0.16	0.921 ± 0.046
A6NEM2 and related entries (UniProt P51610)	0.97 ± 0.014	0.987 ± 0.033
C9JFR7 and related entries (UniProt P99999)	0.987 ± 0.091	0.934 ± 0.14
A0A0U1RQS4|A0A0U1RR93|Q9BYB0 and related entries (UniProt Q9BYB0)	1.01 ± 0.017	0.958 ± 0.028
D6REX3 and related entries (UniProt O94979)	1.01 ± 0.048	0.994 ± 0.031
A0A0U1RRM4|A6NLN1 and related entries (UniProt P26599)	0.987 ± 0.074	0.919 ± 0.15
B8ZZS2 and related entries (UniProt Q13506)	1.15 ± 0.18	0.912 ± 0.15
C9JYS5 and related entries (UniProt J3QL63+J3QL47+Q9NYZ1+C9JYS5)	1.03 ± 0.18	1.05 ± 0.12
C9J406 and related entries (UniProt Q16891)	1 ± 0.049	1.01 ± 0.076
C9IZL5 and related entries (UniProt O00189)	1.07 ± 0.15	1.07 ± 0.1
UniProt A9UHW6 and related entries	0.923 ± 0.091	0.897 ± 0.11
C9JQV3 and related entries (UniProt Q8N1F8)	1.01 ± 0.012	1.02 ± 0.11
A0A0U1RRM6|Q8N8S7 and related entries (UniProt Q8N8S7)	1.01 ± 0.055	0.992 ± 0.078
D6RE79 and related entries (UniProt Q14728)	1.09 ± 0.041	1.03 ± 0.027
B0QYS6 and related entries (UniProt P19484)	1.02 ± 0.021	0.888 ± 0.11
B0QYK0 and related entries (UniProt Q01844)	0.971 ± 0.0099	0.986 ± 0.029
A0A140T9T7|Q03518 (UniProt Q03518)	1.01 ± 0.06	1.03 ± 0.091
B5MDU6 and related entries (UniProt Q9H6V9)	1.02 ± 0.067	1.08 ± 0.1
A0A0G2JNC5|A0A0G2JNH7|F8WCM8 and related entries (UniProt O15197)	1.07 ± 0.052	1.02 ± 0.025
B9A054 and related entries (UniProt Q8TEB9)	1.03 ± 0.11	0.979 ± 0.027
